Values from PubChem BioAssay AID504791 (Drosophila RNAi Screening Center, 2011)
Screen: 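Factors in Argonaute-based small RNA production and activity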 (primary screen). Cell system: Drosophila S2-derived reporter cells. Reagent: long dsRNA against Drosophila genes, about 150-250 ng dsRNA per well (siRNA assay); about 80-120 ng (miRNA assay). Timing: about 5 days (siRNA assay); about 4 days (miRNA assay). Challenge: copper sulfate induction of reporters: 25 µM (siRNA assay); 200 mM stated (miRNA assay), 1-2 days before reading. Detection: 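Per-well ratio of Renilla over firefly light, expressed relative to that plate's average ratio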. Units: stable assay Renilla, run 1 in luminescence; stable assay firefly, run 1 in luminescence. Active means: 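First-pass picks had plate-scaled ratios over 1.5 for the siRNA assay, over 1.6 for the miRNA assay, or under 0.6; two distinct dsRNAs had to score alike on retest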.
In all, the deposit lists about 23,000 reagents; shown is an unselected part of those with a known target gene and a result. In the full data, 199 (0.86%) got an active call. 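Plate-scaled ratios behind the calls are not deposited; printed light signals are raw; many rows marked increased or decreased are still called inactive.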 Entries without a mark were called inactive. A plus sign joins genes that one reagent is predicted to hit. Not stated in the record: the direction of the score.

With knock-down of Jon65Aiii (GeneID 38683) [DRSC10649], the record shows stable assay Renilla, run 1 = 7548; stable assay firefly, run 1 = 5.23e5. ena (GeneID 37201) [DRSC05779] scored stable assay Renilla, run 1 = 5456; stable assay firefly, run 1 = 3.68e5. Depletion of ena (GeneID 37201) [DRSC07610] gave: stable assay Renilla, run 1 = 9929; stable assay firefly, run 1 = 4.20e5. dia (GeneID 35340) [DRSC03519] gave stable assay Renilla, run 1 = 7623; stable assay firefly, run 1 = 3.72e5. With knock-down of Fis1 (GeneID 49892) [DRSC07772] the results were stable assay Renilla, run 1 = 7150; stable assay firefly, run 1 = 3.90e5. With knock-down of Elovl7 (GeneID 40943) [DRSC15452], the record shows stable assay Renilla, run 1 = 7386; stable assay firefly, run 1 = 3.90e5.

Elovl7 (GeneID 40943) [DRSC21570] scored stable assay Renilla, run 1 = 9407; stable assay firefly, run 1 = 4.44e5. For Dcp-1 (GeneID 37729) [DRSC04609], the entry reads stable assay Renilla, run 1 = 3.48e5; stable assay firefly, run 1 = 2.49e5. Against CG16970 (retired record) (GeneID 34740) [DRSC01310], the values are stable assay Renilla, run 1 = 5495; stable assay firefly, run 1 = 4.21e5. Against CG16970 (retired record) (GeneID 34740) [DRSC02549] the deposit lists stable assay Renilla, run 1 = 8822; stable assay firefly, run 1 = 5.06e5. With knock-down of CG13331 (GeneID 36503) [DRSC06366], the record shows stable assay Renilla, run 1 = 6931; stable assay firefly, run 1 = 3.68e5. CG34205 (GeneID 37526) [DRSC04149] scored stable assay Renilla, run 1 = 6222; stable assay firefly, run 1 = 3.46e5.

After knock-down of CG34205 (GeneID 37526) [DRSC22823] the results were stable assay Renilla, run 1 = 5314; stable assay firefly, run 1 = 5.91e5. Depletion of CG2006 + Spase12 [DRSC14316] came out at: stable assay Renilla, run 1 = 6222; stable assay firefly, run 1 = 5.75e5. For Pits (GeneID 32205) [DRSC19385] the deposit lists miRNA reporter change reporter ratio raised past the hit cutoff; stable assay Renilla, run 1 = 5319; stable assay firefly, run 1 = 4.34e5. Against Pits (GeneID 32205) [DRSC19812], the entry reads stable assay Renilla, run 1 = 4975; stable assay firefly, run 1 = 5.02e5. rod (GeneID 43719) [DRSC17047] showed stable assay Renilla, run 1 = 7713; stable assay firefly, run 1 = 5.64e5. For CG12911 (GeneID 36081) [DRSC06226], the values are stable assay Renilla, run 1 = 5860; stable assay firefly, run 1 = 3.27e5.

After knock-down of CG3040 (GeneID 31642) [DRSC22486], the record shows stable siRNA reporter change reporter ratio raised past the hit cutoff; stable assay Renilla, run 1 = 1475; stable assay firefly, run 1 = 74601.
